Experimental data: PubChem BioAssay AID504808 (Drosophila RNAi Screening Center, 2011)
The deposit covers about 21,000 reagents; below is an unselected part of those with a known target gene and a result. In the full data, 18 (0.084%) are marked active. 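Raw counts without plate normalisation, one of two replicates; the ratio scores behind the calls were not deposited.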 Names joined by + are all predicted targets of the reagent. Not stated in the record: the amount of reagent, the time to read-out.

Purpose: 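Chromatin factors that keep E2F targets switched off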 (primary screen)
System: Drosophila S2 cells
Reagent: long dsRNA against Drosophila genes
Read-out: 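Firefly luciferase driven by E2F sites, normalised to Renilla luciferase on the same minimal promoter, measured by plate reader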
Reading the numbers: E2F firefly: higher = more E2F reporter activity; Renilla normaliser: higher = more normaliser reporter signal
Rule for the call: 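a knock-down counted as active when the firefly/Renilla E2F signal rose above 50%, a threshold chosen arbitrarily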

| Gene | PubChem SID | E2F firefly, rep 1 | Renilla normaliser, rep 1 | Call |
| --- | --- | --- | --- | --- |
| Mis12 | SID104190091 | 1.11e5 | 4846 | inactive |
| CG32219 | SID104189433 | 83380 | 4243 | inactive |
| Sem1 (Suppressor of exocyst mutations 1) | SID104182074 | 1.46e5 | 5074 | inactive |
| CG9426 | SID104183011 | 90376 | 4279 | inactive |
| pds5 | SID104186462 | 2709 | 183 | inactive |
| P58IPK | SID104196196 | 1.65e5 | 6442 | inactive |
| CG4995 | SID104182593 | 77580 | 3516 | inactive |
| MED28 (Mediator complex subunit 28) | SID104195513 | 83831 | 5322 | inactive |
| GlyRS (Glycyl-tRNA synthetase) | SID104190503 | 68381 | 3536 | inactive |
| Megf8 (Multiple EGF like domains 8) | SID104182850 | 94392 | 4104 | inactive |
| BomBc3 (Bomanin Bicipital 3) | SID104195665 | 1.31e5 | 7105 | inactive |
| CG11638 | SID104197959 | 1.23e5 | 6910 | inactive |
| CG11638 | SID104198432 | 1.23e5 | 6340 | inactive |
| aus (argus) | SID104193263 | 78153 | 2600 | inactive |
| aus (argus) | SID104193265 | 83987 | 2610 | inactive |
| aus (argus) | SID104194949 | 65962 | 4222 | inactive |
| CG13386 | SID104182052 | 1.39e5 | 5016 | inactive |
| Galphaf (G protein alpha subunit f) | SID104190963 | 1.65e5 | 7241 | inactive |
| Npc1a (Niemann-Pick type C-1a) | SID104183170 | 1.68e5 | 5724 | inactive |
| Ras85D (Ras oncogene at 85D) | SID104196606 | 1.43e5 | 5066 | inactive |
| Kr-h1 (Kruppel homolog 1) | SID104180700 | 1.28e5 | 6910 | inactive |
| Kr-h1 (Kruppel homolog 1) | SID104183147 | 94314 | 4012 | inactive |
| Dhps (Deoxyhypusine synthase) | SID104190740 | 84569 | 3564 | inactive |
| sw + Sdic4 + Sdic3 + 2 more | SID104200488 | 1.41e5 | 6373 | inactive |
| ea (easter) | SID104196731 | 1.11e5 | 5091 | inactive |
| CG13229 | SID104186141 | 95864 | 3931 | inactive |
| dgo (diego) | SID104185926 | 2739 | 189 | inactive |
| CG15147 | SID104182239 | 93534 | 4211 | inactive |
| CG15147 | SID104182240 | 1.01e5 | 4606 | inactive |
| Nup133 (Nucleoporin 133kD) | SID104195942 | 60775 | 3270 | inactive |
| CG5866 | SID104195692 | 97250 | 6111 | inactive |
| Cyp4e1 (Cytochrome P450 4e1) | SID104187162 | 1.50e5 | 5143 | inactive |
| CG11828 | SID104194186 | 1.18e5 | 6516 | inactive |
| Setd3 (SET domain containing 3) | SID104197632 | 1.07e5 | 6279 | inactive |
| Setd3 (SET domain containing 3) | SID104198061 | 51677 | 3649 | inactive |
| dj (don juan) | SID104192417 | 1.27e5 | 5920 | inactive |
| CG3163 | SID104184133 | 81957 | 3213 | inactive |
| barr (barren) | SID104183280 | 1.07e5 | 4898 | inactive |
| ecd (ecdysoneless) | SID104188366 | 71337 | 2980 | inactive |
| Arp2 (Actin-related protein 2) | SID104199124 | 2.52e5 | 7975 | inactive |
| CG42712 (retired record) | SID104180830 | 1.36e5 | 5922 | inactive |
| Alp2 (Alkaline phosphatase 2) | SID104184146 | 93129 | 3717 | inactive |
| CG3803 | SID104184212 | 91397 | 3896 | inactive |
| Tpr2 (Tetratricopeptide repeat protein 2) | SID104183253 | 81467 | 3446 | inactive |
| CG13198 | SID104186115 | 92981 | 4298 | inactive |
| eIF2D (eukaryotic translation initiation factor 2D) | SID104193708 | 82293 | 2760 | inactive |
| Gpa2 (Glycoprotein hormone alpha 2) | SID104200863 | 1.43e5 | 6587 | inactive |
| shams | SID104196382 | 1.12e5 | 5524 | inactive |
| CG1265 | SID104188080 | 95078 | 4426 | inactive |
| CG32642 | SID104198751 | 86264 | 2667 | inactive |
| COX4L (Cytochrome c oxidase subunit 4-like) | SID104184633 | 1.10e5 | 4418 | inactive |
| Dci (Dodecenoyl-CoA delta-isomerase) | SID104188152 | 60518 | 3110 | inactive |
| Asciz (ASCIZ zinc finger protein) | SID104188213 | 90960 | 3735 | inactive |
| dgt5 (dim gamma-tubulin 5) | SID104187072 | 3644 | 191 | inactive |
| Cyp28a5 (Cytochrome P450 28a5) | SID104183089 | 86305 | 3432 | inactive |
| sPLA2 (secretory Phospholipase A2) | SID104185833 | 1.45e5 | 4731 | inactive |
| fau | SID104192608 | 80101 | 3535 | inactive |
| fau | SID104192609 | 83221 | 3753 | inactive |
| fau | SID104196735 | 75512 | 3608 | inactive |
| fau | SID104196736 | 1.30e5 | 7588 | inactive |
| fau | SID104196737 | 1.44e5 | 7161 | inactive |
| CG12012 | SID104188012 | 1.05e5 | 4330 | inactive |
| Cubn2 (Cubilin 2) | SID104190353 | 1.41e5 | 7587 | inactive |
| CG6891 | SID104199808 | 1.61e5 | 6601 | inactive |
| RpL10 (Ribosomal protein L10) | SID104191739 | 74547 | 6909 | inactive |
| CG13445 | SID104189784 | 1.72e5 | 8378 | inactive |
| BCL7-like | SID104197521 | 8221 | 804 | inactive |
| GPHR (Golgi pH Regulator) | SID104186867 | 1.14e5 | 4469 | inactive |
| CG12446 | SID104200410 | 1.45e5 | 6400 | inactive |
| betaTry (betaTrypsin) | SID104187374 | 1.04e5 | 5020 | inactive |
| scaf6 (SR-related CTD associated factor 6) | SID104189867 | 73075 | 3387 | inactive |
| scaf6 (SR-related CTD associated factor 6) | SID104190468 | 1.79e5 | 6792 | inactive |
| scaf6 (SR-related CTD associated factor 6) | SID104190470 | 1.31e5 | 5198 | inactive |
| CG13028 | SID104189700 | 1.70e5 | 8836 | inactive |
| CG9752 | SID104184354 | 83534 | 3885 | inactive |
| Prp31 (Pre-mRNA processing factor 31) | SID104190527 | 74622 | 3617 | inactive |
| CG33506 | SID104185773 | 113 | 34 | inactive |
| CG13454 | SID104189793 | 59523 | 3285 | inactive |
| Aplip1 (APPL-interacting protein 1) | SID104187739 | 1.52e5 | 1996 | inactive |
| Aplip1 (APPL-interacting protein 1) | SID104188489 | 98694 | 4233 | inactive |
| CG3663 | SID104184194 | 83525 | 3629 | inactive |
| ATPsyngamma (ATP synthase, gamma subunit) | SID104193886 | 1.08e5 | 6610 | inactive |
| CG5592 | SID104190316 | 92685 | 3504 | inactive |
| ATPsynbetaL (ATP synthase, beta subunit-like) | SID104190295 | 1.33e5 | 7898 | inactive |
| melt (melted) | SID104191159 | 1.05e5 | 4131 | inactive |
| CG12111 | SID104197600 | 1.22e5 | 5526 | inactive |
| CG6565 | SID104182762 | 79482 | 3263 | inactive |
| CG5157 | SID104190280 | 1.50e5 | 8774 | inactive |
| SoxN (SoxNeuro) | SID104183232 | 1.59e5 | 5647 | inactive |
| Cep290 (Centrosomal protein 290kDa) | SID104188151 | 91516 | 3871 | inactive |
| CG1671 | SID104186409 | 2808 | 209 | inactive |
| lush | SID104191156 | 1.39e5 | 7270 | inactive |
| PsGEF (retired record) | SID104198392 | 98633 | 5329 | inactive |
| PsGEF (retired record) | SID104198393 | 1.13e5 | 5124 | inactive |
| Nepl19 (Neprilysin-like 19) | SID104194667 | 49299 | 3158 | inactive |
| CG16779 | SID104194945 | 1.43e5 | 5244 | inactive |
| Hmg-2 (High mobility group protein 2) | SID104184346 | 78448 | 3709 | inactive |
| CG12617 | SID104181968 | 1.09e5 | 4481 | inactive |
| Ugt302K1 (UDP-glycosyltransferase family 302 member K1) | SID104195878 | 1.53e5 | 6446 | inactive |
| Fa2h (Fatty acid 2-hydroxylase) | SID104186400 | 1.38e5 | 4839 | inactive |
| Fa2h (Fatty acid 2-hydroxylase) | SID104186401 | 1.41e5 | 4992 | inactive |
| CG34030 | SID104188658 | 1.27e5 | 5363 | inactive |
| Myo95E (Myosin 95E) | SID104195613 | 80253 | 4002 | inactive |
| sds22 | SID104196844 | 1.24e5 | 7186 | inactive |
| Tmem63 (Transmembrane protein 63) | SID104185855 | 1.46e5 | 4797 | inactive |
| BicC (Bicaudal C) | SID104181797 | 1.21e5 | 4374 | inactive |
| CG6833 | SID104190513 | 70074 | 3406 | inactive |

15 entries from above, showing only “Renilla normaliser, rep 1”.
RpL10 (Ribosomal protein L10) [SID104191739] = 6909
CG13445 [SID104189784] = 8378
BCL7-like [SID104197521] = 804
GPHR (Golgi pH Regulator) [SID104186867] = 4469
CG12446 [SID104200410] = 6400
betaTry (betaTrypsin) [SID104187374] = 5020
scaf6 (SR-related CTD associated factor 6) [SID104189867] = 3387
scaf6 (SR-related CTD associated factor 6) [SID104190468] = 6792
scaf6 (SR-related CTD associated factor 6) [SID104190470] = 5198
CG13028 [SID104189700] = 8836
CG9752 [SID104184354] = 3885
Prp31 (Pre-mRNA processing factor 31) [SID104190527] = 3617
CG33506 [SID104185773] = 34
CG13454 [SID104189793] = 3285
Aplip1 (APPL-interacting protein 1) [SID104187739] = 1996
